# Reference: the supplement of paper PMC7666118
# Sequences of proteins named here, by UniProt entry; tags and fusion partners are left off. A change or cut given only in a name is not applied to a line headed by its entry.
# UniProt Q96C90: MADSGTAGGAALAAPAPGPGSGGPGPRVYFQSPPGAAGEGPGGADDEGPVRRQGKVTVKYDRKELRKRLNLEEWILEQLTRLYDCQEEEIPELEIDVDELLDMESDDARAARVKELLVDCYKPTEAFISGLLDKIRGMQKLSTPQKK
# UniProt Q9BTU6: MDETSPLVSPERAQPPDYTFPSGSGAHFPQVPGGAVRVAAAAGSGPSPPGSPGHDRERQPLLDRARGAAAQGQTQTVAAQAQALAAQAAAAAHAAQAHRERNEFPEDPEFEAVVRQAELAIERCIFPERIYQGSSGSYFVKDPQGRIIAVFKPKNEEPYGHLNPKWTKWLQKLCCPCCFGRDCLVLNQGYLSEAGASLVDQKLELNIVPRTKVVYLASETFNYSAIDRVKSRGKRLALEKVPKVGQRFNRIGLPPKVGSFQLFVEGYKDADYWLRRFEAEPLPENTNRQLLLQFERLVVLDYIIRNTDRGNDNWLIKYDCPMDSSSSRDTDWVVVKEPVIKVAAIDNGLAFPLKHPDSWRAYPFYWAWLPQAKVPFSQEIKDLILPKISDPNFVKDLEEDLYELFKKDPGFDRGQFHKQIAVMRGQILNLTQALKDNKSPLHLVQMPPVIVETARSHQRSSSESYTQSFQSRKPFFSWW
# UniProt P36871: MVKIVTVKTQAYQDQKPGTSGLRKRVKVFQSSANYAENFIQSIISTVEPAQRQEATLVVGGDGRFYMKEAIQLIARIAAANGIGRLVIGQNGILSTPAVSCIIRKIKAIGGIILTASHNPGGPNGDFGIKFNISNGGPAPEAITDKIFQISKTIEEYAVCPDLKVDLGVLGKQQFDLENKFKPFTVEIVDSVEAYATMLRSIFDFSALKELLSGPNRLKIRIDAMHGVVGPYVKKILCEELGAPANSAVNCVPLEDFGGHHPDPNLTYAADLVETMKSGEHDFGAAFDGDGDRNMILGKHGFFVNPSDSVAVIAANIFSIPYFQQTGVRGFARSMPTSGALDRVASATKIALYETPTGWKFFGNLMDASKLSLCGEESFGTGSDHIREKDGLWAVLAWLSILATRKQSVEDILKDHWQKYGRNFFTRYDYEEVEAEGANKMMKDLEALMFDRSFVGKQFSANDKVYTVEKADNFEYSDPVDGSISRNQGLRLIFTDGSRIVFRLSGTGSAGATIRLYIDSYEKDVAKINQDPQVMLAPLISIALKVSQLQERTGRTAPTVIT
# UniProt Q9NVS9: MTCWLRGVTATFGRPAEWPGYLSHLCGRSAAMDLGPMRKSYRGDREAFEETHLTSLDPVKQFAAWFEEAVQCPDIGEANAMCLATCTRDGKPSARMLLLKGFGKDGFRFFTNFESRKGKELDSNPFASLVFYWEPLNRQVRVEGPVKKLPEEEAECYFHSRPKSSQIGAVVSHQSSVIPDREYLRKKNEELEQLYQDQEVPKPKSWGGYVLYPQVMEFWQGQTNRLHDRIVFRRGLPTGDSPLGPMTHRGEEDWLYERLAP
# UniProt P13861, whole entry: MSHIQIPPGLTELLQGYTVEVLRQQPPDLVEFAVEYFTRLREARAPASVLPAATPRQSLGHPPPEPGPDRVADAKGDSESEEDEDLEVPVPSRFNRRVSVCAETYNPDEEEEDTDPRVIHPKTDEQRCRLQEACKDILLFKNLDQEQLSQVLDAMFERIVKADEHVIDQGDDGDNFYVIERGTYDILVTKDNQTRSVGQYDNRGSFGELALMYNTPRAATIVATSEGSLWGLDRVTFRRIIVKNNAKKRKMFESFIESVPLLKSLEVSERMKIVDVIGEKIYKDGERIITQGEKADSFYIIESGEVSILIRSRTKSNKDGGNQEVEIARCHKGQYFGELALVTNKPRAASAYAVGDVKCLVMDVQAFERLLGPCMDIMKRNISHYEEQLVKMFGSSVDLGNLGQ
# UniProt O60568: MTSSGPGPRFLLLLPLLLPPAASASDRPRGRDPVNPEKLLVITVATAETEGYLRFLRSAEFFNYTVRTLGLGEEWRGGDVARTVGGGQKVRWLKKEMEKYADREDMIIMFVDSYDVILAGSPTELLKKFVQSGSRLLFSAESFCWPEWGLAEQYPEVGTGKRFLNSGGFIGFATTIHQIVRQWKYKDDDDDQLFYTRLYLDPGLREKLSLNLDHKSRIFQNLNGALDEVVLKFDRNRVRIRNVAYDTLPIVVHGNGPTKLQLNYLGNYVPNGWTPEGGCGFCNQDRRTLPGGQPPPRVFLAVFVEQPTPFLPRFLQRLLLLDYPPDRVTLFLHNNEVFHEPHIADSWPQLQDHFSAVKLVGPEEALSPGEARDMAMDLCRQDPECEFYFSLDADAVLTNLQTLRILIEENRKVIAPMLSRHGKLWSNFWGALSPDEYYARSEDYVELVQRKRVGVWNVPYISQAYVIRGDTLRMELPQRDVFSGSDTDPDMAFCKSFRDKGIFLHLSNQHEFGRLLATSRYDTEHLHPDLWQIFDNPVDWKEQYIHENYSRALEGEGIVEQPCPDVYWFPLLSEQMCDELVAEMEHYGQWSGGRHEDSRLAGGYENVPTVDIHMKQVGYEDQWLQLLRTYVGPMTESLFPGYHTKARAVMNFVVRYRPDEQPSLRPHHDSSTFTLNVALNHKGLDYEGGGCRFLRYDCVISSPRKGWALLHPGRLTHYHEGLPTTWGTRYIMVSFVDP
# UniProt Q93100: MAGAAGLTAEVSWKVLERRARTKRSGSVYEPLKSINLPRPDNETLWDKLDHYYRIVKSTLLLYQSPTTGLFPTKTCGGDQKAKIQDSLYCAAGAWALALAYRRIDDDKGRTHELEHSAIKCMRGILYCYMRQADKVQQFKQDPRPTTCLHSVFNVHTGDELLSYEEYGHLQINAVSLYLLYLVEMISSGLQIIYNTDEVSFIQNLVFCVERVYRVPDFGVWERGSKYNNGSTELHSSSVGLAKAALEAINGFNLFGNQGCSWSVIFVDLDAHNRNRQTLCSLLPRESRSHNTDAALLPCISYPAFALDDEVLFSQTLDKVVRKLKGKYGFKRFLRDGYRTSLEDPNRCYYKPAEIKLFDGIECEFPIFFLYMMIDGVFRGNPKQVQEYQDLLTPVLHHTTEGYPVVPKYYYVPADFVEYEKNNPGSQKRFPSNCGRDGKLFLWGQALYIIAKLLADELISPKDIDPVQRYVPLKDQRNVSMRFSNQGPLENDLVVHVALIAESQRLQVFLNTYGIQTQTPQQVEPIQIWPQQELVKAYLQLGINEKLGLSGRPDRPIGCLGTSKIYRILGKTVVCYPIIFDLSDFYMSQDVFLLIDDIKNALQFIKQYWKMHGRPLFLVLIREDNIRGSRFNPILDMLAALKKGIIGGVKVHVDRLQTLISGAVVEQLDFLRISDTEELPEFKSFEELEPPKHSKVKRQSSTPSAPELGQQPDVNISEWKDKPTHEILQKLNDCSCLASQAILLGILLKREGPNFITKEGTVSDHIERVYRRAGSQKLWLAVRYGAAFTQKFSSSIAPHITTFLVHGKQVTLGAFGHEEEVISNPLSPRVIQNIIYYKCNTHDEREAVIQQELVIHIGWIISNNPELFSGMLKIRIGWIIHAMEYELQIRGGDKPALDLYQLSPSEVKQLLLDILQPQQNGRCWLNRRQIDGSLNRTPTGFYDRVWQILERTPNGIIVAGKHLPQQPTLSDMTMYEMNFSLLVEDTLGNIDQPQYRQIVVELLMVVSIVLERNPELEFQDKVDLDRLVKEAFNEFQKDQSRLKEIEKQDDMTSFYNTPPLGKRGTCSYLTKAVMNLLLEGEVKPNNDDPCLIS
# UniProt Q96G03: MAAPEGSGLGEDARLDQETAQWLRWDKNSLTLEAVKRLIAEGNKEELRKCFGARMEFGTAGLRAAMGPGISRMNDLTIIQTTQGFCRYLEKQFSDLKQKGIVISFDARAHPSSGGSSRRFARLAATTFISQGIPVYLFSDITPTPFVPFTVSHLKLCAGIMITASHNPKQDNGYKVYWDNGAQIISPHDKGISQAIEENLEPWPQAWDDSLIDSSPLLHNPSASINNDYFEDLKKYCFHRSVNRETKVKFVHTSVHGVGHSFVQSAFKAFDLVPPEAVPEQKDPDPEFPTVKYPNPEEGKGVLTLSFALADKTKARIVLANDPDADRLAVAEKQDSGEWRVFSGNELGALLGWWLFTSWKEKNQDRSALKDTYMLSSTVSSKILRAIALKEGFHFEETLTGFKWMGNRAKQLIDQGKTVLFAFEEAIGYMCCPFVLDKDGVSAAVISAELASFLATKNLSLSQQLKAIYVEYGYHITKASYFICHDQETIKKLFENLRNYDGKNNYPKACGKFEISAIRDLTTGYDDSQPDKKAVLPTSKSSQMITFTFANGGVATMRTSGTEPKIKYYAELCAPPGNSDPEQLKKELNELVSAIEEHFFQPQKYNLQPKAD
# UniProt Q00169: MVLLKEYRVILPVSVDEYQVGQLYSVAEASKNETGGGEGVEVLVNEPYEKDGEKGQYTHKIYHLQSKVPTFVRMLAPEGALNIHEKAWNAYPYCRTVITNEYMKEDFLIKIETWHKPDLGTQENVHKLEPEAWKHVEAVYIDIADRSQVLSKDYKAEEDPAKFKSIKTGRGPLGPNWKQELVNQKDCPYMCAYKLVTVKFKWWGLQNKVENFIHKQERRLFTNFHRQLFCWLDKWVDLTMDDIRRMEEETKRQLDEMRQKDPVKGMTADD
# UniProt O43175: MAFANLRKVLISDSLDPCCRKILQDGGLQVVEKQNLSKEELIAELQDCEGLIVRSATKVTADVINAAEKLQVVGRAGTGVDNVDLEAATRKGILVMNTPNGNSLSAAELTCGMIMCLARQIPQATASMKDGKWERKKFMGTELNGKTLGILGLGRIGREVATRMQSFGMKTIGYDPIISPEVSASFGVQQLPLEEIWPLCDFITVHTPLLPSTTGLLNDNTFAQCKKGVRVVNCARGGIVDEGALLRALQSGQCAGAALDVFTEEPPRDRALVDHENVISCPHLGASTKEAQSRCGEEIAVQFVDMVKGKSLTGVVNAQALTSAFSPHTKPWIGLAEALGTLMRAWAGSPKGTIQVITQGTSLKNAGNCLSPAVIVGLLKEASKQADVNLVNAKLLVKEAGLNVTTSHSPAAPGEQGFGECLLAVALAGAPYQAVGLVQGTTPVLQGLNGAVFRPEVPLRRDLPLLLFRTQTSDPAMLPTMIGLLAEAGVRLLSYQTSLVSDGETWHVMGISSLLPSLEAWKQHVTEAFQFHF
# UniProt Q15257: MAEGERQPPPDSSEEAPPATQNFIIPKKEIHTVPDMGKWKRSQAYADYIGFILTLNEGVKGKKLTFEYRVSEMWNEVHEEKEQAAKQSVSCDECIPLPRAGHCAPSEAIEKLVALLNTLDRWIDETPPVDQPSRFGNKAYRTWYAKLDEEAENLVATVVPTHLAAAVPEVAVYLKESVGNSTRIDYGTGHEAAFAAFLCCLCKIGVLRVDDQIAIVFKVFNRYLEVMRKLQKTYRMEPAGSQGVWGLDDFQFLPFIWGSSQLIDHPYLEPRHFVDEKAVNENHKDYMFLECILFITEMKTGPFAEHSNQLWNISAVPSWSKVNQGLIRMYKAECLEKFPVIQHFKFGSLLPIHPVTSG
# UniProt O00264: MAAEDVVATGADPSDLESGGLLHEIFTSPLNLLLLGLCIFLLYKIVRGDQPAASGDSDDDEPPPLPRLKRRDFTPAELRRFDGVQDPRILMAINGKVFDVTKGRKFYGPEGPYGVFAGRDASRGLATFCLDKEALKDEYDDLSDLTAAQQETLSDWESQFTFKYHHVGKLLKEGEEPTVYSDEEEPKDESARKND
# UniProt Q9Y244: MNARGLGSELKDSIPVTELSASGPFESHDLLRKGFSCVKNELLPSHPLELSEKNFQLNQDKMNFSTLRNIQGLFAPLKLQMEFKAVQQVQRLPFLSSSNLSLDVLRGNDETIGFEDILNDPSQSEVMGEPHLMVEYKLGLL
# UniProt Q08752, whole entry: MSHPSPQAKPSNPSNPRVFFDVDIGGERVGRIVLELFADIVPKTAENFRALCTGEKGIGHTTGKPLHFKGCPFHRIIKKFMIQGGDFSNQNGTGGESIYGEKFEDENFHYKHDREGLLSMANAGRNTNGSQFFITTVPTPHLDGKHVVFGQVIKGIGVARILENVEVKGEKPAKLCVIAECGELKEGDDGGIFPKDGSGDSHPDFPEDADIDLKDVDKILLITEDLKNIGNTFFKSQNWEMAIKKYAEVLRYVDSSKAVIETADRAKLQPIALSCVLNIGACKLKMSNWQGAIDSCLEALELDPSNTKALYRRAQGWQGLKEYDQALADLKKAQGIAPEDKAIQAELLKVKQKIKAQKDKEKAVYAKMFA
# UniProt O15160, whole entry: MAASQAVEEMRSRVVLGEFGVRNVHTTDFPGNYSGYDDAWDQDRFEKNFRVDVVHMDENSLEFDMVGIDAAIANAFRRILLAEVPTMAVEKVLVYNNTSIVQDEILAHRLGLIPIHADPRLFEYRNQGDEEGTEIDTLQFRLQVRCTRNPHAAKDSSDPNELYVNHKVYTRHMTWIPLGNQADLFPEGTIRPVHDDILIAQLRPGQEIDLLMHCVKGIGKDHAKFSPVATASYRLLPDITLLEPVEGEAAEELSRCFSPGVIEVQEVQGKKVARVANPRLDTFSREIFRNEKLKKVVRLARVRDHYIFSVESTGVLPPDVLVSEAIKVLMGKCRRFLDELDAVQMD
# The other results are listed elsewhere or left out.
# Compound: COc1ccc(Cn2ccc3ccc(C(=O)NO)cc32)cc1
# Assay: dose-dependent thermal stabilisation call (2D-TPP, DLPTP, 10% FDR) (binary (1 = stabilised)); higher = stabilised by the compound
# Conditions: system: HL-60 intact cells; concentration range 0.04-10 µM
row,Target,dose-dependent thermal stabilisation call
1,POLE (UniProt Q07864),inactive: 0
2,PPP1R14B (UniProt Q96C90),inactive: 0
3,POLE3 (UniProt Q9NRF9),inactive: 0
4,PRKAR1A (UniProt P10644),inactive: 0
5,PIK3R4 (UniProt Q99570),inactive: 0
6,PPP1CA (UniProt P62136),inactive: 0
7,PI4K2A (UniProt Q9BTU6),inactive: 0
8,POLR2D (UniProt O15514),inactive: 0
9,PGM1 (UniProt P36871),active: 1
10,PPHLN1 (UniProt Q8NEY8),inactive: 0
11,PNPO (UniProt Q9NVS9),inactive: 0
12,PGS1 (UniProt Q32NB8),inactive: 0
13,PODXL (UniProt O00592),inactive: 0
14,PPM1F (UniProt P49593),inactive: 0
15,PRKAR2A (UniProt P13861),inactive: 0
16,PLOD3 (UniProt O60568),inactive: 0
17,POLR1D,inactive: 0
18,POLR2H (UniProt P52434),inactive: 0
19,PRDX3 (UniProt P30048),inactive: 0

row,Target,dose-dependent thermal stabilisation call
1,PHKB (UniProt Q93100),inactive: 0
2,POLR3F (UniProt Q9H1D9),inactive: 0
3,POLR2K (UniProt P53803),inactive: 0
4,PGM2 (UniProt Q96G03),inactive: 0
5,PITPNA (UniProt Q00169),inactive: 0
6,PPM1B (UniProt O75688),inactive: 0
7,POLR1B (UniProt Q9H9Y6),inactive: 0
8,PHGDH (UniProt O43175),inactive: 0
9,PPP2R4 (UniProt Q15257),inactive: 0
10,PHF6 (UniProt Q8IWS0),inactive: 0
11,PPP2R5D (UniProt Q14738),inactive: 0
12,PLEKHM2 (UniProt Q8IWE5),inactive: 0
13,PGRMC1 (UniProt O00264),inactive: 0
14,POMP (UniProt Q9Y244),inactive: 0
15,PPID (UniProt Q08752),inactive: 0
16,POLRMT (UniProt O00411),inactive: 0
17,POP1 (UniProt Q99575),inactive: 0
18,PIGU (UniProt Q9H490),inactive: 0
19,POLR1C (UniProt O15160),inactive: 0

# Individual results from the results shown:
# Under dose-dependent thermal stabilisation call, POP1 (UniProt Q99575) is listed with inactive: 0
# Under dose-dependent thermal stabilisation call, PGM2 (UniProt Q96G03) is listed with inactive: 0
# Under dose-dependent thermal stabilisation call, PPM1B (UniProt O75688) is listed with inactive: 0
